{"source": "patent US20090012052A1", "about": "“METHOD FOR TREATING ER+ BREAST CANCER” (Ore Pharmaceuticals Inc., priority 2006, published 2009)", "system": "T47D cells", "experiment": "Cell proliferation assay (RT-CES impedance), ER+ cell line T47D", "assay_type": "cell-based, human", "details": "formestane 10 μM + Ang II 500 nM", "procedure": "Unless otherwise indicated, cell proliferation assays described in Examples 2-5 were performed using a Real-Time Cell Electronic Sensing (RT-CES™ 96×) instrument from ACEA Bioscience (San Diego, Calif.). This instrument utilizes an electronic readout (impedance) to non-invasively quantify adherent cell proliferation and viability in real time.\nCells were seeded in 96-well microtiter plates containing microelectronic sensor arrays (96E plates; ACEA). Cells were maintained in RPMI 1640 (Invitrogen, Carlsbad, Calif.) supplemented with 10% fetal bovine serum (FBS) (Hyclone, Logan, Utah) and were cultured at 37° C. in a humidified atmosphere containing 5% CO2. For proliferation assays, cells were seeded (20,000 cells/well), allowed to attach and grown overnight in standard growth medium. Cells were then serum-starved for 8 hours prior to the proliferation assay in presence or absence of test compound(s). The proliferation response was continuously monitored by measuring the impedance change in each well for the indicated number of hours. Data are expressed as cell index (CI) change relative to time in culture, reflecting measured changes in electrical impedance. Each value shown is an average of 6 wells. Where shown, statistical analysis was performed by calculation of standard deviation and P values were generated by a Student's two-tailed t-test. […]", "note": "At least one structure is not confirmed: it was looked up by name or label, or the drawing left a doubt."}
{"smiles": "C[C@]12CCC(=O)C(O)=C1CC[C@@H]1[C@@H]2CC[C@]2(C)C(=O)CC[C@@H]12", "note": "[formestane]", "values": [{"measurement": "Effect on Ang II-induced cell proliferation", "value": "reversed the Ang II effect"}]}
